Amino acid sequences for entries named in this document (tags omitted). Residues count along the entry.
UniProt P46098, 24-478 limits assumed: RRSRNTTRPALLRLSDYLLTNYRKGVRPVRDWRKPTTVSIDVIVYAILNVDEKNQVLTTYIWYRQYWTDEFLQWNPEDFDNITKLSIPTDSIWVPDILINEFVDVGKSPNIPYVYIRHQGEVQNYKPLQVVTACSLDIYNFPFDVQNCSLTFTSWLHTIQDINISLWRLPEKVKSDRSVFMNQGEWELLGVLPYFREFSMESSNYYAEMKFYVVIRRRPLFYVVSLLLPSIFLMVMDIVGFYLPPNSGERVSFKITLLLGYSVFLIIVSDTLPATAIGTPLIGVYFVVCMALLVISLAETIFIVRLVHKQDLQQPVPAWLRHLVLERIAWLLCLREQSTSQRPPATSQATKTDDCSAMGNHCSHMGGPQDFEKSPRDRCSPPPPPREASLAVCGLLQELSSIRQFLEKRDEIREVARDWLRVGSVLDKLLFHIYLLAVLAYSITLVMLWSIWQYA

In paper PMC4166935, “Toward Biophysical Probes for the 5-HT3 Receptor: Structure−Activity Relationship Study of Granisetron Derivatives” (Journal of Medicinal Chemistry, 2010):

Target: h5-HT3AR in HEK293 cells (Homo sapiens, UniProt P46098)
Experiment: Confocal labeling of HEK293 cells stably transfected with h5-HT3AR with fluorescent probe 16
Settings: 10 nM 16 for 10 min, without quipazine, confocal microscope

With CC1=CC(C)=[N+]2C1=Cc1ccc(CCC(=O)NCCCn3nc(C(=O)NC4CC5CCCC(C4)N5C)c4ccccc43)n1[B-]2(F)F (stereo not shown) the “fluorescent labeling of cells” value was “Fluorescence is observed in all cells”.

The match of structure and compound is tentative.
